# Laboratory results as given in PubChem BioAssay AID493014 (National Center for Advancing Translational Sciences (NCATS), 2011).
# Several values for one entry are separate records, joined by “and”; a condition that tells them apart may be missing. Equal values may be shown once. The list shows a part of the results. The main result of the screen is listed elsewhere. These columns were measured beside it and carry no call. Most of these compounds were active or inconclusive in the main read-out, so they are no random draw. The note in brackets gives the kind of curve behind each potency; many fits are weak.
# Assay: qHTS Assay to Find Inhibitors of Chronic Active B-Cell Receptor Signaling
# Details: ABC-DLBCL IkBa-CBG/CBR reporter, luminescence ratio (green luciferase fused to IkBa over red control in TMD8 lymphoma cells), 4 h
# Summary of the method: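 Cell line TMD8 (human ABC DLBCL), stably expressing tet-inducible CBG68-IkBa fusion and CBR; IMDM/0.5% FBS; cpd up to 46 uM; dox induction, 4 h, 37C/5% CO2; dual luminescence; green/red ratio; MG132 control.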
# [1] = measured here: CBR red luminescence, cell number
# [2] = measured here: IkBa-CBG green luminescence
SMILES,AC50 [1],AC50 [2]
O=C(CSc1n[nH]c(-c2ccccc2)n1)c1ccccc1,"23.1 µM [falling, partial curve]",–
O=C(NNC(=O)c1cccc(O)c1)Nc1ccc([N+](=O)[O-])cc1,"12.6 µM [falling, partial curve]",–
COc1cc(C(=O)Nc2ccc3c(c2)OCCO3)ccc1OC(F)F,"25.1 µM [falling, single point]",–
Cn1nc(-c2ccccc2)c2nc3ccccc3nc21,"5.62 µM [rising, single point]",–
COc1cc(/C=N/Nc2nncn2/N=C/c2ccc(O)c(OC)c2)ccc1O,"35.5 µM [falling, single point]",–
C=C(C)c1cccc(C(C)(C)NC(=O)NC2CCN(Cc3ccccc3)CC2)c1,"17.8 µM [falling, partial curve]",–
Cc1ccc(S(=O)(=O)N/N=C/c2ccc(OCC(=O)Nc3ccccc3Cl)cc2)cc1,"35.5 µM [falling, partial curve, poor fit]",–
CCOc1ccc(S(=O)(=O)n2ccnc2C)cc1,"0.0891 µM [rising, full curve, poor fit]",–
O=C(Nc1ccc(Cl)cc1)c1csc(-c2ccccc2)n1,"29.1 µM [falling, single point]",–
Cc1cc(C)n2cc(-c3ccc(Cl)cc3)c(C(=O)O)c2n1,"1 µM [falling, full curve]",–
CN(C)c1cc(N/N=C/c2ccccc2C(F)(F)F)nc(N(C)C)n1,"0.708 µM [rising, full curve, poor fit]",–
CCOC(=O)CN1C(=O)CC(c2ccc([N+](=O)[O-])cc2)C1=O (stereo not drawn),"35.5 µM [rising, single point]",–
N#CC1=C(N)SC(N)=C(C#N)C1c1c(Cl)cccc1Cl,"35.5 µM [falling, single point]",–
COc1ccc2cc(C(=O)NCC(=O)O)sc(=O)c2c1OC,"0.224 µM [falling, full curve, poor fit]",–
COC(=O)c1ccc2c(c1)SC1=C(CCCC1=O)N2,"4.11 µM [rising, full curve, poor fit]",–
CCOC(=O)NC(Nc1nnc(SCC)s1)(C(F)(F)F)C(F)(F)F,"14.6 µM [rising, single point]",–
CC(=O)c1ccc(-n2c(CCC(=O)O)ccc2-c2ccccc2)cc1,"25.1 µM [rising, single point]",–
Cc1ccc2[nH]c(=O)c(CN3CCCCC3)c(-c3ccccc3)c2c1,–,"11.2 µM [falling, partial curve, poor fit]"
Cc1ccc(OCC(=O)NCc2ccco2)cc1C,"20.6 µM [falling, single point]",–
O=C(Cc1ccccc1)NNc1ccc2ccccc2c1,"0.794 µM [falling, full curve]",–
COc1ccc(C2C(C#N)=C(N)OC3=C2C(=O)CC(C)(C)C3)cc1OC (stereo not drawn),"6.31 µM [rising, single point]",–
Nc1ccc(Nc2ccncc2[N+](=O)[O-])cc1,"23.1 µM [falling, partial curve]",–

SMILES,AC50 [1],AC50 [2]
Cc1cccc(-n2nnc(C(=O)NC3CCCc4ccccc43)c2N)c1 (stereo not drawn),"6.31 µM [falling, partial curve]",–
CCC1=C2CC[C@H]3C(=O)N(c4ccccc4)C(=O)[C@H]3[C@H]2[C@@]2(C)C(=NCc3ccccc3)OC(=O)N2C1=O,"11.2 µM [falling, partial curve, poor fit]",–
Cc1ccc(S(=O)(=O)NCCc2cc3ccc(C)cc3[nH]c2=O)cc1,"8.91 µM [falling, partial curve]",–
COc1cc(/C=N/NC(=O)COc2ccc(Cl)cc2)ccc1OS(=O)(=O)c1ccc(C)cc1,"13 µM [rising, single point]",–
Cc1ccc(S(=O)(=O)Nc2ccc(Cl)cc2)cc1NC(=O)c1cc2c(s1)CCCC2,"20.6 µM [falling, single point]",–
CCOc1cc(/C=C2\SC(=S)N(Nc3ccccc3)C2=O)ccc1O,"12.6 µM [falling, partial curve, poor fit]",–
COc1cc(/C=N/O)cc(Br)c1OCc1cccc(Cl)c1,"14.1 µM [rising, partial curve, poor fit]",–
Cc1ccccc1N(CC(=O)N/N=C/c1cc(C)n(-c2ccccc2C)c1C)S(C)(=O)=O,"16.4 µM [falling, partial curve, poor fit]",–
O=C(/C=C/c1cn(CC(O)CN2CCOCC2)c2ccccc12)c1cccs1 (stereo not drawn),"11.2 µM [falling, partial curve, poor fit]",–
Cc1cc(C(=O)c2ccccc2)c(NC(=O)CCl)s1,"11.6 µM [falling, partial curve]","20.6 µM [rising, partial curve, poor fit]"
Cc1ccc(NC(=O)CSc2cccc3cccnc23)c(C)c1,–,"17.8 µM [falling, single point]"
Fc1ccc(-c2csc3ncnc(N4CCc5ccccc5C4)c23)cc1,"32.6 µM [falling, single point]",–
CN(C)CCSc1nnc(-c2ccccc2)o1,"16.4 µM [falling, partial curve, poor fit]",–
COc1cccc(C2=NN(C(=O)c3ccccc3)C(O)(C(F)(F)F)C2)c1 (stereo not drawn),"20.6 µM [falling, single point]",–
C/C(=N/Nc1cc(-c2ccccc2)nc(-c2ccccc2)n1)c1ccc(O)cc1,"2.59 µM [falling, full curve]",–
CCOc1cccc(C(=O)Nc2nnc(-c3cccs3)s2)c1,"1.03 µM [falling, full curve]",–
COc1ccc(Cl)cc1N1C(=O)C2CCCN2C1c1ccc(F)c(F)c1 (stereo not drawn),"35.5 µM [falling, single point]",–
O=C1C=CC(=O)N1,"29.1 µM [falling, single point]",–
Cc1ccc(N2C(=O)C3Sc4[nH]c(=O)sc4C(c4ccccc4)C3C2=O)cc1 (stereo not drawn),"25.1 µM [falling, partial curve, poor fit]",–
Cc1cccc(-c2nnc(NC(=O)c3ccco3)s2)c1,"3.16 µM [falling, full curve]",–
O=C(NC(=S)N1CCN(c2ccccc2)CC1)c1ccccc1,"11.2 µM [rising, single point]",–
CC(C)CC(NC(=O)OC(C)(C)C)C(=O)NCc1ccccc1 (stereo not drawn),"3.16 µM [rising, full curve]",–

# Structural class, those above containing an NH in an aromatic ring (four)
SMILES,AC50 [1],AC50 [2]
O=C(CSc1n[nH]c(-c2ccccc2)n1)c1ccccc1,"23.1 µM [falling, partial curve]",–
Cc1ccc2[nH]c(=O)c(CN3CCCCC3)c(-c3ccccc3)c2c1,–,"11.2 µM [falling, partial curve, poor fit]"
Cc1ccc(S(=O)(=O)NCCc2cc3ccc(C)cc3[nH]c2=O)cc1,"8.91 µM [falling, partial curve]",–
Cc1ccc(N2C(=O)C3Sc4[nH]c(=O)sc4C(c4ccccc4)C3C2=O)cc1 (stereo not drawn),"25.1 µM [falling, partial curve, poor fit]",–

# (more compounds)

SMILES,AC50 [1],AC50 [2]
Cc1ccc(NC(=O)N(C)c2ccccc2)cc1,"15.8 µM [falling, single point]",–
O=[N+]([O-])c1ccccc1N/N=C/c1cccc(O)c1O,"10 µM [falling, partial curve, poor fit]",–
O=C(/C=C/c1cn(-c2ccccc2)nc1-c1ccccc1)Nc1ccc(C(=O)O)cc1,"0.708 µM [falling, full curve, poor fit]",–
COc1ccc(-c2nnc(NC(=O)c3ccc4c(c3)OCCO4)o2)cc1,"3.16 µM [falling, full curve, poor fit]",–
CCC(CC)NCc1ccc2c(c1)c1ccccc1n2CC,"15.8 µM [falling, partial curve]",–
Cc1ccc(C)c(CS(=O)(=O)c2cn(CC(=O)N3CCC(C)CC3)c3ccccc23)c1,"18.4 µM [falling, single point]",–
Cc1cc(C)c(-c2csc(NC(=O)CCCc3nc4ccccc4c(=O)[nH]3)n2)c(C)c1,"20.6 µM [falling, single point]",–
N=C1SCC(=O)N1c1ncc(Cc2ccccc2Cl)s1,"3.16 µM [rising, partial curve, poor fit]","3.55 µM [falling, full curve]"
CCOC(=O)Cc1cc(=O)n2[nH]c(-c3ccc(Cl)cc3)cc2n1,"7.31 µM [falling, partial curve]",–
Cc1ccccc1/C=N/n1c(-c2cc(-c3ccccc3)n[nH]2)n[nH]c1=S,"0.631 µM [rising, full curve, poor fit]",–
Cc1csc(CNc2ncnc3ccc(-c4ccc5c(c4)OCCO5)cc23)c1,"29.1 µM [falling, single point] and 18.4 µM [falling, single point]",–
CC(/C=C/c1ccccc1)=N\NC(=S)NC(C)C,"25.1 µM [rising, single point]","11.2 µM [falling, partial curve]"
Cc1ccc(NC(=O)C2CCC(CNc3c(N4CCC(C)CC4)c(=O)c3=O)CC2)cc1F (stereo not drawn),"3.98 µM [rising, partial curve]",–
COc1c(Cl)cc(C(=O)Nc2ccccc2C(=O)O)cc1Cl,"1.41 µM [falling, full curve]",–
Cc1cc(C(=O)N/N=C/c2c[nH]c3ccccc23)c(C)o1,"14.6 µM [falling, partial curve, poor fit]",–
CCCOC(=O)c1c(NC(=O)C2CCCO2)sc(C(=O)OC)c1C (stereo not drawn),"2.31 µM [falling, partial curve, poor fit]",–
Cc1cc(C(C)(C)C)ccc1OCCn1ccnc1,"20.6 µM [falling, single point]","20.6 µM [rising, partial curve, poor fit]"
COc1ccc(/C(O)=C2\C(=O)C(=O)N(c3cc(C)on3)C2c2ccccc2OC)cc1 (stereo not drawn),"3.26 µM [falling, partial curve]",–
O=C(Nc1ccccc1N(C(=O)c1ccco1)S(=O)(=O)c1cccs1)c1ccco1,"23.1 µM [falling, single point]",–
COC(=O)c1cccc(Nc2nc3ccccc3nc2C)c1,"3.98 µM [rising, single point]",–
